Assay results as given in PubChem BioAssay AID2685 (National Center for Advancing Translational Sciences (NCATS), 2010).
The other results are listed elsewhere or left out. Shown are side measurements of this screen, not its main read-out; they come without a call. Most of these compounds were active or inconclusive in the main read-out, so they are no random draw. Potencies come from curve fits of mixed quality, noted in brackets.

Experiment: qHTS Assay for Lipid Storage Modulators in Drosophila S3 Cells;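 on cell number change: cells counted by Cell Tracker Red CMTPX staining in the red channel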
Conditions: BODIPY lipid droplet fluorescence, 18-24 h; for cell number change: measured here: cell count max response, cells fed with added oleic acid
Summary of the method: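 Laser-scanning cytometry quantifies lipid droplet accumulation (500–530 nm total intensity; droplet/cell object ratio) in oleic acid-fed (400 uM added) Drosophila S3 cells treated with a concentration series. 20 uM Triacsin C defined 100% inhibition.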

[1] = measured here: lipid fluorescence (Fed channel) AC50, cells fed with added oleic acid
[2] = measured here: cell number channel AC50, cells fed with added oleic acid

For `O=C(O)c1csc(-c2ccccc2)n1`, the cell number change was -7.1% and the AC50 [1] was 3.26 µM [falling, single point].
With `Cn1c2ccccc2c2nnc(SCc3nnc(-c4ccccc4)o3)nc21` the cell number change was 39.8%, the AC50 [2] was 29.1 µM [rising, single point] and the AC50 [1] was 2.31 µM [rising, partial curve, poor fit].
For `CC(=O)C1=C(C)NC(=O)NC1c1cccs1` (stereo not given), the cell number change was -38.6%, the AC50 [2] was 3.26 µM [falling, full curve] and the AC50 [1] was 3.26 µM [falling, full curve].
With `O=C(COc1ccccc1)NC1C(=O)N2C(C(=O)O)=C(Cl)CSC12` (stereo not given) the cell number change was 25.7% and the AC50 [1] was 29.1 µM [rising, single point].
For `Cc1ccc2nc(NC(=O)C3CCN(c4ncnc5sc(C)c(C)c45)CC3)sc2c1`, the cell number change was 30.5%, the AC50 [2] was 11.6 µM [rising, partial curve, poor fit] and the AC50 [1] was 7.31 µM [rising, partial curve, poor fit].
In the case of `O=C(COC(=O)c1n[nH]c2ccccc12)Nc1ccc(S(=O)(=O)N2CCCC2)cc1`, the cell number change is reported as -31.6% and the AC50 [1] is reported as 4.61 µM [falling, partial curve].
In the case of `CCOc1ccc(S(=O)(=O)NN)cc1`, the cell number change is reported as 7.28%, the AC50 [2] is reported as 4.11 µM [falling, single point] and the AC50 [1] is reported as 14.6 µM [falling, partial curve].
With `C=CCCOc1ccccc1C(N)=O` the cell number change was 3.76% and the AC50 [1] was 4.11 µM [falling, single point].
For `CCOc1ccccc1NC(=O)c1oc2ccccc2c1NC(=O)C1CCCO1` (stereo not given), the cell number change was 0.797%, the AC50 [2] was 0.731 µM [rising, full curve, poor fit] and the AC50 [1] was 0.0116 µM [rising, full curve, poor fit].
For `CC(OC(=O)c1ccc2ccccc2c1)C(=O)N(C)Cc1ccccc1` (stereo not given), the cell number change was 25.6% and the AC50 [1] was 29.1 µM [rising, single point].
In the case of `CCOc1ccc(S(=O)(=O)NCCCN2CCOCC2)c2ccccc12`, the AC50 [1] is reported as 0.116 µM [falling, full curve, poor fit].
In the case of `Fc1ccc(OCc2nn3cnnc3s2)cc1`, the cell number change is reported as -2.81%.
For `O=C(CN1CCSCC1)N/N=C/c1cccc(Cl)c1`, the cell number change was 18.9% and the AC50 [1] was 0.00461 µM [falling, full curve, poor fit].
`Cc1nnc(SCC2=C(C(=O)O)N3C(=O)C(NC(=O)Cc4ccccc4)C3SC2)s1` (stereo not given) showed a cell number change of 0.423%.
For `CC(=O)Nc1ccc(S(=O)(=O)N2CCC(C(=O)NCCC(=O)Nc3nccs3)CC2)cc1`, the cell number change was 6.87% and the AC50 [1] was 29.1 µM [rising, partial curve].
In the case of `CCN(CC)S(=O)(=O)c1ccc2c(c1)nc(SCC(N)=O)n2-c1ccc(OC)cc1`, the cell number change is reported as 25.1% and the AC50 [1] is reported as 29.1 µM [rising, single point].
`COc1cccc(C(=O)NCCCn2ccnc2)c1` showed a cell number change of -45.3%.
In the case of `CCN(CC)c1ccc(/C=C(/C#N)C(=O)NC(C)C)o1`, the cell number change is reported as -4.94%.
In the case of `O=C(/C=C/c1ccc2c(c1)OCO2)c1ccc[nH]1`, the cell number change is reported as -1.22%, the AC50 [2] is reported as 6.51 µM [rising, single point] and the AC50 [1] is reported as 16.4 µM [rising, partial curve].
For `CCONC(=NC)c1nonc1N`, the cell number change was -47.3%, the AC50 [2] was 4.11 µM [falling, full curve, poor fit] and the AC50 [1] was 6.51 µM [falling, single point].
`Cc1cccc([N+](=O)[O-])c1NC(=O)CN(Cc1ccccc1)Cc1ccccc1` showed a cell number change of 4.72%.
For `Cc1ccc(SCCC(=O)Nc2ccccc2C(=O)N2CCOCC2)cc1`, the cell number change was 6.46% and the AC50 [1] was 0.651 µM [falling, partial curve, poor fit].
In the case of `CCC(=O)Nc1c(C)nn(C(=O)CC)c1C`, the cell number change is reported as -42.4%, the AC50 [2] is reported as 3.66 µM [falling, full curve] and the AC50 [1] is reported as 14.6 µM [falling, partial curve].
For `NC(=O)Nc1cccc2ccccc12`, the cell number change was 7.61%, the AC50 [2] was 0.461 µM [falling, single point] and the AC50 [1] was 0.461 µM [falling, single point].
With `Cc1c(OC(C)C(=O)NCCCN2CCCC2=O)ccc2c3c(c(=O)oc12)CCCC3` (stereo not given) the cell number change was -24.8% and the AC50 [1] was 29.1 µM [falling, single point].
With `Cc1ccc(CNS(=O)(=O)NCc2ccccc2F)cc1` the cell number change was 107% and the AC50 [2] was 8.2 µM [rising, partial curve].
With `c1nc2nc3c(c(N4CCOCC4)n2n1)CCCC3` the cell number change was 43.1% and the AC50 [2] was 20.6 µM [rising, single point].
In the case of `Cc1nn(C)c(C)c1NS(=O)(=O)c1ccc(OC(F)(F)F)cc1`, the cell number change is reported as -97.5%.
In the case of `CCOc1ccc(NS(=O)(=O)c2ccc3[nH]c(=O)cc(C(=O)O)c3c2)cc1`, the cell number change is reported as -30.2%, the AC50 [2] is reported as 29.1 µM [falling, single point] and the AC50 [1] is reported as 29.1 µM [falling, single point].
In the case of `CC(OC(=O)CNC(=O)c1sc2ccccc2c1Cl)C(=O)NC1(C#N)CCCCC1` (stereo not given), the cell number change is reported as -6.33% and the AC50 [1] is reported as 20.6 µM [falling, single point].
With `Cc1ccc(NC(=O)C2CCN(S(=O)(=O)c3cccc4nonc34)CC2)cc1` the cell number change was 337% and the AC50 [2] was 29.1 µM [rising, single point].
With `Cc1ccc(S(=O)(=O)N2CC(C(=O)O)=CC[C@H]2c2ccc3c(c2)OCO3)cc1` the cell number change was -16.7% and the AC50 [1] was 0.411 µM [rising, partial curve, poor fit].
For `C/C(=N\Nc1cc(C)nc(NCc2ccccc2)n1)c1ccc([N+](=O)[O-])cc1`, the cell number change was 36.4% and the AC50 [2] was 36.6 µM [rising, single point].
With `COc1cccc(CNC(=O)CN2C(=O)NC(Cc3ccccc3)(c3ccccc3)C2=O)c1` (stereo not given) the cell number change was -59.1%, the AC50 [2] was 13 µM [falling, partial curve] and the AC50 [1] was 9.2 µM [falling, partial curve].
For `O=C(OCC(=O)N1CCCC1)c1c[nH]c2ccccc12`, the cell number change was -26.5% and the AC50 [1] was 32.6 µM [falling, single point].
For `O=C(CSc1nnc2ccc3ccccc3n12)c1ccc(F)cc1`, the cell number change was 13.6% and the AC50 [1] was 32.6 µM [falling, single point].
For `CC(=O)Nc1ccc(S(=O)(=O)N2CCN=C2SCc2cccc(C)c2)cc1`, the cell number change was -32.2% and the AC50 [2] was 32.6 µM [falling, single point].
With `COc1ccc(Nc2nnc(SCC3CCCO3)s2)cc1` (stereo not given) the AC50 [1] was 6.51 µM [falling, single point].
For `Cn1c(CN2CCOCC2)nnc1SCC(=O)Nc1ccc([N+](=O)[O-])cc1O`, the cell number change was -5.41% and the AC50 [1] was 29.1 µM [rising, single point].
With `CCOc1ccc(Br)cc1S(=O)(=O)Nc1ccc(NC(=O)c2ccccc2C)cc1` the cell number change was 30.1%, the AC50 [2] was 6.51 µM [falling, partial curve, poor fit] and the AC50 [1] was 0.92 µM [rising, partial curve, poor fit].
For `O=C(N/N=C/c1ccc(OCc2ccc(F)cc2)cc1)c1ccccc1`, the cell number change was -40.3% and the AC50 [1] was 29.1 µM [falling, single point].
With `CN(C)CCCN=Cc1c(O)n(Cc2ccccc2)c(=O)c2ccccc12` the cell number change was 52.5%, the AC50 [2] was 14.6 µM [rising, partial curve, poor fit] and the AC50 [1] was 1.64 µM [rising, partial curve].
With `CCC(=O)N1CCc2cc(Br)cc(S(=O)(=O)CC(=O)OC)c21` the cell number change was 10.7%.
With `COc1ccc2c(C)nc(N/C(N)=N/S(=O)(=O)c3ccc(C)cc3)nc2c1` the cell number change was -67.8%, the AC50 [2] was 29.1 µM [falling, single point] and the AC50 [1] was 29.1 µM [falling, partial curve].
In the case of `COC(=O)c1ccccc1NC(=O)CSc1nncn1-c1ccccn1`, the cell number change is reported as 15.2% and the AC50 [1] is reported as 2.91 µM [falling, single point].
In the case of `O=C(C(=O)N1CCN(c2ccc([N+](=O)[O-])cc2)CC1)c1cn(CC(=O)N2CCOCC2)c2ccccc12`, the cell number change is reported as 33.1%, the AC50 [2] is reported as 32.6 µM [rising, single point] and the AC50 [1] is reported as 6.51 µM [rising, partial curve, poor fit].
Compound `COC(=O)c1c(C)[nH]c(C)c1-c1ccccc1Cl` has a cell number change of -22.3%.
In the case of `CC(COC(=O)c1ccccc1)(COC(=O)c1ccccc1)/[N+]([O-])=C/c1ccccc1`, the cell number change is reported as -31.2%, the AC50 [2] is reported as 0.116 µM [falling, full curve] and the AC50 [1] is reported as 18.4 µM [falling, partial curve, poor fit].
In the case of `Cc1ccccc1C(=O)Nc1ccc2c(c1)CCCN2C(=O)c1cccs1`, the cell number change is reported as 1.42% and the AC50 [1] is reported as 29.1 µM [falling, single point].
With `OCC[C@H]1C[C@@H](O)[C@H](O)[C@]2(CCc3ccccc3O2)O1` the cell number change was -24.6% and the AC50 [1] was 1.46 µM [rising, partial curve].
With `COc1cccc(C(=O)NCCSc2ccc(Br)cc2)c1` the AC50 [1] was 0.00461 µM [falling, full curve, poor fit].
For `Cc1ccc(S(=O)(=O)NCC(=O)NCC(=O)NC(C)c2ccccc2Br)cc1C` (stereo not given), the cell number change was 11.5% and the AC50 [1] was 29.1 µM [rising, single point].
With `CC(=O)N1c2ccc(S(=O)(=O)N3CCC(C(=O)Nc4cccc(C)n4)CC3)cc2CC1C` (stereo not given) the cell number change was 10.1% and the AC50 [1] was 0.82 µM [falling, full curve, poor fit].
`O=C(O)COc1ccc(Nc2ccccc2)cc1` showed a cell number change of 13.3%.
With `O=C(O)c1cc(-c2ccc(Cl)cc2)n[nH]1` the AC50 [2] was 2.31 µM [rising, partial curve, poor fit].
For `COc1ccc(NC(=O)N2CCCC2C(=O)Nc2cccc(C)c2C)cc1` (stereo not given), the cell number change was 17.5% and the AC50 [1] was 6.51 µM [falling, single point].
For `CC1CCc2c(C(=O)OCC(=O)Nc3cccc(S(=O)(=O)N4CCCCCC4)c3)csc2C1` (stereo not given), the cell number change was -3.01%, the AC50 [2] was 6.51 µM [falling, single point] and the AC50 [1] was 29.1 µM [rising, single point].
With `O=C(CN1C(=O)COc2ccc(S(=O)(=O)N3CCCC3)cc21)NCc1ccccn1` the cell number change was -16.9% and the AC50 [1] was 3.26 µM [falling, full curve].
